PubChem BioAssay AID1224828 – NIAID, 2016
Assay: 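Find genes required for NF-kappaB p65 moving into the nucleus after LPS in mouse macrophages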 (primary screen). System: mouse RAW264.7 G9 macrophage reporter cells (GFP-p65, Tnf promoter-mCherry). Reagent: siRNA pool against mouse genes, 100 nM. Time to read-out: 2 days siRNA transfection, then 40 min LPS before fixation. Treatment: LPS (Salmonella minnesota R595) at 10 ng/ml. Detection: 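Microscopy ratio of nuclear to perinuclear-ring GFP-p65 signal, scaled to the plate median; gene score is the average of two replicate robust z-scores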. Scale: p65 translocation robust z-score: higher = more nuclear NF-kappaB p65 after LPS than the plate median; nuclear/cytoplasmic p65 ratio: higher = more nuclear NF-kappaB p65. Call rule: 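Active if robust z is above 3.3 (negative regulators) or below -1.56, the Tlr4 control median (positive regulators); activity score 50 or more; control wells not called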. Meaning of the calls: active = hit (p65 shift raised or lowered); inactive = no clear change.
The deposit covers about 17,000 reagents; this is a random part of them. Over the whole deposit, 762 (4.5%) are marked active. 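Active calls include both raised and lowered p65 entry, mostly lowered; wells with fewer than 50 cells lack a z-score.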 Raw values are not corrected between plates. A reagent listed more than once was tested more than once; the source does not tell the runs apart.

no.	gene knocked down	p65 translocation robust z-score	nuclear/cytoplasmic p65 ratio, rep 1	nuclear/cytoplasmic p65 ratio, rep 2	low cell count flag	call
1	Hck (Hck proto-oncogene, Src family tyrosine kinase)	0.79	1.85	1.46	enough cells to score	inactive
2	Yes1 (YES proto-oncogene 1, Src family tyrosine kinase)	-0.12	1.63	1.4	enough cells to score	inactive
3	Fzd4 (frizzled class receptor 4)	0.63	1.59	1.72	enough cells to score	inactive
4	Cib3 (calcium and integrin binding family member 3)	-0.53	1.52	1.55	enough cells to score	inactive
5	Psme1	0.4	1.48	1.53	enough cells to score	inactive
6	Ptgr2 (prostaglandin reductase 2)		1.37	1.41	fewer than 50 cells per well; well left out of scoring	inactive
7	Tpm3 (tropomyosin 3, gamma)	-0.61	1.29	1.2	enough cells to score	inactive
8	Ghrhr (growth hormone releasing hormone receptor)	-1.18	1.34	1.41	enough cells to score	inactive
9	Fcgr3 (Fc receptor, IgG, low affinity III)	-0.61	1.32	1.34	enough cells to score	inactive
10	Slc3a2		1.45	1.47	fewer than 50 cells per well; well left out of scoring	inactive
11	Rps20 (ribosomal protein S20)	-1.41	1.19	1.1	enough cells to score	inactive
12	Cdh20 (cadherin 20)	-0.33	1.47	1.29	enough cells to score	inactive
13	Tmed1 (transmembrane p24 trafficking protein 1)	-1.36	1.29	1.21	enough cells to score	inactive
14	Lat2 (linker for activation of T cells family, member 2)	-0.44	1.35	1.21	enough cells to score	inactive
15	Atg3 (autophagy related 3)	-2.33	1.14	1.11	enough cells to score	active
16	Zfp40 (zinc finger protein 40)	0.05	1.32	1.34	enough cells to score	inactive
17	Lce1c (late cornified envelope 1C)	1.23	1.57	1.76	enough cells to score	inactive
18	Lce1c (late cornified envelope 1C)	-0.08	1.44	1.53	enough cells to score	inactive
19	Fam110b (family with sequence similarity 110, member B)	0.3	1.41	1.48	enough cells to score	inactive
20	Otx2 (orthodenticle homeobox 2)		1.48	1.24	fewer than 50 cells per well; well left out of scoring	inactive
21	Tssk1 (testis-specific serine kinase 1)		1.52	1.52	fewer than 50 cells per well; well left out of scoring	inactive
22	Plekhf1 (pleckstrin homology and FYVE domain containing 1)	1.78	1.57	1.45	enough cells to score	inactive
23	Foxp4 (forkhead box P4)	0.13	1.65	1.44	enough cells to score	inactive
24	Chd3 (chromodomain helicase DNA binding protein 3)	-0.61	1.5	1.69	enough cells to score	inactive
25	Tma7 (translational machinery associated 7)		1.23	1.6	fewer than 50 cells per well; well left out of scoring	inactive
26	Adgrb2 (adhesion G protein-coupled receptor B2)	1.08	1.71	1.69	enough cells to score	inactive
27	4632404H12Rik (RIKEN cDNA 4632404H12 gene)	-0.15	1.26	1.25	enough cells to score	inactive
28	Uso1 (USO1 vesicle docking factor)	-0.71	1.35	1.1	enough cells to score	inactive
29	1700084P21Rik (RIKEN cDNA 1700084P21 gene)	-0.89	1.28	1.3	enough cells to score	inactive
30	Tc2n (tandem C2 domains, nuclear)	-0.47	1.63	1.59	enough cells to score	inactive
31	Ssna1 (SS nuclear autoantigen 1)		1.46	1.49	fewer than 50 cells per well; well left out of scoring	inactive
32	Rabgef1 (RAB guanine nucleotide exchange factor (GEF) 1)	-0.55	1.48	1.41	enough cells to score	inactive
33	Gbe1 (1,4-alpha-glucan branching enzyme 1)	0.09	1.49	1.34	enough cells to score	inactive

Called active (from the list above):
gene knocked down	p65 translocation robust z-score	nuclear/cytoplasmic p65 ratio, rep 1	nuclear/cytoplasmic p65 ratio, rep 2	low cell count flag	call
Atg3 (autophagy related 3)	-2.33	1.14	1.11	enough cells to score	active

The list goes on.
no.	gene knocked down	p65 translocation robust z-score	nuclear/cytoplasmic p65 ratio, rep 1	nuclear/cytoplasmic p65 ratio, rep 2	low cell count flag	call
34	Slco1a6		1.84	1.54	fewer than 50 cells per well; well left out of scoring	inactive
35	Erich2 (glutamate rich 2)		1.25	1.35	fewer than 50 cells per well; well left out of scoring	inactive
36	Kcnj16	0.53	1.58	1.51	enough cells to score	inactive
37	Qtrt1 (queuine tRNA-ribosyltransferase catalytic subunit 1)	-0.79	1.28	1.13	enough cells to score	inactive
38	Lrrfip1 (leucine rich repeat (in FLII) interacting protein 1)		1.52	1.18	fewer than 50 cells per well; well left out of scoring	inactive
39	Fam111a (family with sequence similarity 111, member A)		1.36	1.08	fewer than 50 cells per well; well left out of scoring	inactive
40	Ret (ret proto-oncogene)	-1.21	1.48	1.24	enough cells to score	inactive
41	Galnt1 (polypeptide N-acetylgalactosaminyltransferase 1)	0.72	1.68	1.45	enough cells to score	inactive
42	Gli1 (GLI-Kruppel family member GLI1)	-0.25	1.36	1.38	enough cells to score	inactive
43	Prrx2 (paired related homeobox 2)	-0.3	1.45	1.37	enough cells to score	inactive
44	Cd3g (CD3 antigen, gamma polypeptide)	0.03	1.46	1.39	enough cells to score	inactive
45	Fastk (Fas-activated serine/threonine kinase)	-0.06	1.77	1.38	enough cells to score	inactive
46	Top1mt (DNA topoisomerase 1, mitochondrial)	0.35	1.65	1.68	enough cells to score	inactive
47	Hsd17b10 (hydroxysteroid (17-beta) dehydrogenase 10)	2.4	1.76	1.9	enough cells to score	inactive
48	Ston2 (stonin 2)	-0.96	1.21	1.13	enough cells to score	inactive
49	Kcnj6 (potassium inwardly-rectifying channel, subfamily J, member 6)	0.57	1.54	1.71	enough cells to score	inactive
50	Mgat5 (mannoside acetylglucosaminyltransferase 5)	0.93	1.81	1.73	enough cells to score	inactive
51	Ppp1r16b (protein phosphatase 1, regulatory subunit 16B)	0.93	1.65	1.51	enough cells to score	inactive
52	Tcta (T cell leukemia translocation altered gene)	0.18	1.66	1.62	enough cells to score	inactive
53	Mmp2 (matrix metallopeptidase 2)	-0.8	1.16	1.25	enough cells to score	inactive
54	Cotl1 (coactosin like F-actin binding protein 1)	-0.13	1.52	1.8	enough cells to score	inactive
55	Rock2 (Rho-associated coiled-coil containing protein kinase 2)			1.35	fewer than 50 cells per well; well left out of scoring	inactive
56	Zfpm2 (zinc finger protein, multitype 2)	0.56	1.62	1.55	enough cells to score	inactive
57	Tlr13 (toll-like receptor 13)	-1.36	1.15	1.08	enough cells to score	inactive
58	Ndor1 (NADPH dependent diflavin oxidoreductase 1)	-1.85	1.51	1.29	enough cells to score	active
59	Vhl (von Hippel-Lindau tumor suppressor)	-0.03	1.5	1.5	enough cells to score	inactive
